Values of other authors as cited in patent US7312205B2, “Methods and compositions for inhibiting tumor growth” (Novelix Pharmaceuticals, Inc., priority 2003, dated 2007).
At least one compound was matched to its structure with a doubt left.

System: melanoma
Details: monotherapy in melanoma; cited from earlier work

SMILES: CN(C)/N=N/c1[nH]cnc1C(N)=O [Dacarbazine, 5-(3,3-dimethyl-2-triazenyl)-1-H-imidazole-4-carboxamide]
- response rates: about 30%
